Results published in patent publication US8901175B2 (priority 2008, dated 2014).
Where a name gives a salt, the structure may show the parent alone.

Columns and labels:
Details in all cases: 30, 20, 15, 10 μM methadone, 24 h and 48 h
[1] = test system: CEM cells
[2] = test system: HL-60 cells
[3] = test system: peripheral blood lymphocytes (PBLs)

## CCC(=O)C(CC(C)N(C)C)(c1ccccc1)c1ccccc1 (racemic) [methadone, D, L-methadone hydrochloride]
[1]
  inhibition of growth: strong inhibition of growth
[2]
  inhibition of growth: strong inhibition of growth
[3]
  killing of non-leukaemic PBLs: could not kill PBLs
